Laboratory results taken from PMC9499646, “Histidine-Rich Glycoprotein Suppresses the S100A8/A9-Mediated Organotropic Metastasis of Melanoma Cells” (International Journal of Molecular Sciences, 2022).
No constants are given. Whether binding was seen depends on the method and setting. In cells and extracts the contact can be indirect. Some results given as binding are weak or reduced against the parent protein; the word gives no strength. Where a sequence is shown, tags or fusion partners need not be part of it.

Chains of the proteins cited; added tags and fusions are not shown.
UniProt P26447: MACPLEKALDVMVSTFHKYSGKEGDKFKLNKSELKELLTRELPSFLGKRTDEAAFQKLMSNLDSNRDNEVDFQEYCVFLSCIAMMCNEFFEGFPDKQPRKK

B1: histidine-rich glycoprotein (HRG), human plasma (protein, UniProt P04196 19-525)
chain: VSPTDCSAVEPEAEKALDLINKRRRDGYLFQLLRIADAHLDRVENTTVYYLVLDVQESDCSVLSRKYWNDCEPPDSRRPSEIVIGQCKVIATRHSHESQDLRVIDFNCTTSSVSSALANTKDSPVLIDFFEDTERYRKQANKALEKYKEENDDFASFRVDRIERVARVRGGEGTGYFVDFSVRNCPRHHFPRHPNVFGFCRADLFYDVEALDLESPKNLVINCEVFDPQEHENINGVPPHLGHPFHWGGHERSSTTKPPFKPHGSRDHHHPHKPHEHGPPPPPDERDHSHGPPLPQGPPPLLPMSCSSCQHATFGTNGAQRHSHNNNSSDLHPHKHHSHEQHPHGHHPHAHHPHEHDTHRQHPHGHHPHGHHPHGHHPHGHHPHGHHPHCHDFQDYGPCDPPPHNQGHCCHGHGPPPGHLRRRGPGKGPRPFHCRQIGSVYRLPPLRKGEVLPLPEANFPSFPLPHHKHPLKPDNQPFPQSVSESCPGKFKSGFPQVSMFFTHTFPK
modifications: glycosylated (a total of about 20-KDa glycosyl chains)
B2: HA-tagged membrane-anchored S100A9 (protein, UniProt P06702 1-114)
chain: MTCKMSQLERNIETIINTFHQYSVKLGHPDTLNQGEFKELVRKDLQNFLKKENKNEKVIEHIMEDLDTNADKQLSFEEFIMLMARLTWASHEKMHEGDEGPGHHHKPGLGEGTP
B3: HA-tagged membrane-anchored S100A3 (protein, UniProt P33764 1-101)
chain: MARPLEQAVAAIVCTFQEYAGRCGDKYKLCQAELKELLQKELATWTPTEFRECDYNKFMSVLDTNKDCEVDFVEYVRSLACLCLYCHEYFKDCPSEPPCSQ
B4: HA-tagged membrane-anchored S100A5 (protein, UniProt P33763 1-92)
chain: METPLEKALTTMVTTFHKYSGREGSKLTLSRKELKELIKKELCLGEMKESSIDDLMKSLDKNSDQEIDFKEYSVFLTMLCMAYNDFFLEDNK

What was measured:
[1] = biological target: T1, myc-tagged modified (membrane-anchored) HRG (UniProt P04196); assay: co-IP; HEK293T co-transfected with membrane-anchored myc-tagged HRG and HA-tagged S100 proteins; IP with anti-myc agarose, 3 h at 4 °C; blot with HA antibody
T1 sequence: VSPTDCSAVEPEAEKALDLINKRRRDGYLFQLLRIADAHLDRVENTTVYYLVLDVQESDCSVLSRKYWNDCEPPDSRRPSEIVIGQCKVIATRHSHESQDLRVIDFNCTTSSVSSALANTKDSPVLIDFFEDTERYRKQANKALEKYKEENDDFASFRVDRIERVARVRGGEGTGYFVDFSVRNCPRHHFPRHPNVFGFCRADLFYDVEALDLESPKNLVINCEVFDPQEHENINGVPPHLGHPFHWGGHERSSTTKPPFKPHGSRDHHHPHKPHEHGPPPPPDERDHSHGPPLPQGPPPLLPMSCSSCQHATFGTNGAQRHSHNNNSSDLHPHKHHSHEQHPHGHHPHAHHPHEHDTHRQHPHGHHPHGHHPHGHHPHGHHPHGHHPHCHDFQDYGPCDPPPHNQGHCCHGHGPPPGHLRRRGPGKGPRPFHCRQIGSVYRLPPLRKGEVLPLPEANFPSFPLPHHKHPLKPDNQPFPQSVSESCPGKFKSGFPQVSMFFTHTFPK

GST-S100A9 (human) = biological target: T2, GST-S100A9 (human) (UniProt P06702); assay: pull-down; 10 µg GST protein (single, or preincubated mixture of GST-S100A8 and GST-S100A9) incubated with 1 mL healthy human plasma, 30 min, room temperature; glutathione-conjugated Sepharose beads; eluted with glutathione; SDS-PAGE, CBB stain; bands identified by LC-MS/MS; only the target …
T2 sequence: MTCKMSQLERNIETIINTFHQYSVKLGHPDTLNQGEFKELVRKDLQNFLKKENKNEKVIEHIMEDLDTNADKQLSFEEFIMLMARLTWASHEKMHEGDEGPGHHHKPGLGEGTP

GST-S100A8 (human) = biological target: T3, GST-S100A8 (human) (UniProt P05109); assay: as above
T3 sequence: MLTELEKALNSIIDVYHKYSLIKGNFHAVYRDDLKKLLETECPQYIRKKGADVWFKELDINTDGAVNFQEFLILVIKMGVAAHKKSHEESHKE

[2] = biological target: T4, GST-S100A8/A9 (preincubated mixture of GST-S100A8 and GST-S100A9) (human) (UniProt P05109+P06702); assay: as above
T4 sequence 1: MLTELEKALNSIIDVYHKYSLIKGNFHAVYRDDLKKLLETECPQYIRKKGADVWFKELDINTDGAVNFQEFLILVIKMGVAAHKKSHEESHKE
T4 sequence 2: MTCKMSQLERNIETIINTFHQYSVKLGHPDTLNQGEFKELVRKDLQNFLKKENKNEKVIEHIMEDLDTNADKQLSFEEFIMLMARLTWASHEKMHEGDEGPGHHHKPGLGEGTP

| Molecule | binding [1] | binding (GST-S100A9 (human)) | binding (GST-S100A8 (human)) | binding [2] |
| --- | --- | --- | --- | --- |
| HA-tagged membrane-anchored S100A4 (from UniProt P26447 1-101) | binds | – | – | – |
| B1 | – | binds | no binding (tested: 10 µg GST protein in 1 mL plasma) | binds |
| B2 | binds | – | – | – |
| B3 | binds | – | – | – |
| B4 | binds | – | – | – |
